From EP4781993A1, “ANTIBACTERIAL COMPOSITION AND ANTIBACTERIAL DRUG” (Shenzhen China Resources Gosun Pharmaceuticals Co., Ltd., priority 2023, dated 2025)
Where a name gives a salt, the structure may show the parent alone. At least one structure is not confirmed: it was looked up by name or label, or the drawing left a doubt.

How the values were obtained:
[1] = system: KPC-2 producing Klebsiella pneumoniae; test: Broth-microdilution MIC (CLSI M07-A11) against clinical isolates; type: cell-based
Description: (§1) As recommended by CLSI (Clinical and Laboratory Standards Institute) M07-A11 (2018 edition), the Broth-microdilution method is adopted to determine the minimum inhibitory concentration (MIC) of ceftobiprole and zidebactam against clinical isolates. It should be noted that, in the present disclosure, MIC50 refers to the minimum drug concentration that inhibits the growth of 50% of the tested bacteria, and MIC90 refers to the minimum drug concentration that inhibits the growth of 90% of the tested bacteria.
(§2) Antibacterial drug: ceftobiprole, manufacturer: Shenyang Sanjiu Pharmaceutical, content: 92.1%, batch number: YF/BALP141/000. Zidebactam, manufacturer: Target M01 company, batch number: 149661. Zidebactam, as described above, the English name is Zidebactam, and the chemical name is: (2S,5R)-7-oxo-2-(2-((R)-piperidine-3-carbonyl)hydrazine-1-carbonyl)-1,6-diazabicyclo[3.2.1]octan-6-yl hydrogen sulfate.
(§3) Tested strains: a total of 24 genotypic strains producing KPC or OXA β-lactamase. Specifically, the tested strains include 24 strains of Klebsiella pneumoniae, including 12 KPC-2 producing strains and 12 OXA-232 producing strains.
(§4) Quality control strains: Escherichia coli ATCC 25922, (KPC-2 producing) Klebsiella pneumoniae ATCC BAA-1705, and (NDM-1 producing) Klebsiella pneumoniae ATCC BAA-2146.
(§5) Medium: cation-adjusted Mueller-Hinton broth (CAMHB), a product of BBL Company, USA.
(§6) Inoculum size: Pure isolated colonies were adjusted with normal saline to 0.5 McFarland turbidity. After appropriate dilution, the suspension was added to the wells of a 96-well U-bottom microplate (containing 50 µL antibacterial drug solution). The inoculum size was 5 × 10^5 CFU/mL.
(§7) Culture conditions: air environment, 35°C ± 2°C, 16 to 20 hours.
(§8) Preparation of Antibacterial Drug Solution : Ceftobiprole and zidebactam were taken separately, dissolution and dilution were performed according to the antibacterial drug reference to the CLSI standards and the drug package insert, A1 to A6, a total of 6 groups of antibacterial drug solutions, were prepared, among which, group A1 was the control group containing solely the single agent ceftobiprole, and group A2 was the control group containing solely the single agent zidebactam. […]
(§9) Experimental results: Currently, there are no established CLSI or EUCAST breakpoints for ceftobiprole/β-lactamase inhibitor. Therefore, the antibacterial activity of ceftobiprole/β-lactamase inhibitor is evaluated in accordance with the standards for ceftobiprole. […] The fractional inhibitory concentration index (FIC) for the combination of ceftobiprole and zidebactam is calculated according to Equation (1). […]

[2] = system: OXA-232 producing Klebsiella pneumoniae; test: as above; type: cell-based
Description: as §1, §2, §3, §4, §5, §6, §7, §8, §9

[3] = 12 strains, MIC = ceftobiprole concentration (groups A2, B2, C2, D2, E2: inhibitor alone)

For `O=C(NNC(=O)[C@@H]1CC[C@@H]2CN1C(=O)N2OS(=O)(=O)O)[C@@H]1CCCNC1` [Group A2, (2S,5R)-7-oxo-2-(2-((R)-piperidine-3-carbonyl)hydrazine-1-carbonyl)-1,6-diazabicyclo[3.2.1]octan-6-yl hydrogen sulfate], the MIC range [1, 3] was 1 to >128, the antibacterial activity ([1]; verdict in words) was “no antibacterial activity” and the MIC range [2, 3] was 1 to >128. The antibacterial activity ([2]; verdict in words) was “weak antibacterial activity”.
